# Experimental data reported in PMC8190858.
# The chains behind the UniProt entries cited, without tags or fusion partners.
# UniProt P62258: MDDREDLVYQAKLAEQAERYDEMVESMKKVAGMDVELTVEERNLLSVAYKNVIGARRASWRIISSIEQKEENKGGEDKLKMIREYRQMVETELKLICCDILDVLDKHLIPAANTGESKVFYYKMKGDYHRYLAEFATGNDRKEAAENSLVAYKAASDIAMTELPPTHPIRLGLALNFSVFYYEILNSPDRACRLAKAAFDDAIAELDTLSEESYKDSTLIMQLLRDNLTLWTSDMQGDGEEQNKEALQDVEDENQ
# No constants are given. Whether binding was seen depends on the method and setting. Binding seen in cells or lysates may run through a third protein. Some binding calls cover weakened binding; strength is not graded here.
# Molecular target: T1, Human epididymis protein 4 (HE4) (human (endogenous in CAOV3 and ES2)) (UniProt Q14508)
# T1 sequence: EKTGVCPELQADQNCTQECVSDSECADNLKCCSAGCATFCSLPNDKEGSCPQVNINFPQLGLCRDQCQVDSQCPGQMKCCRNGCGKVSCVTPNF
# Assay: co-IP; lysates of CAOV3 and ES2 cells (500 μg, sonicated in lysis buffer) incubated overnight at 4 °C with 2 μg anti-YWHAE or anti-HE4 antibody, Protein A/G Plus-Agarose beads 6 h; IgG of the same species as negative control; western blot
substance,measurement,value
tyrosine 3-monooxygenase/tryptophan 5-monooxygenase activation protein epsilon (YWHAE) (from UniProt P62258 1-255),binding,binds
